Where a name gives a salt, the structure may show the parent alone. The list shows a part of the results. Repeats are few or missing, and single values can be far off.

In this experiment the test system is primary mouse Muller glia with Ascl1 overexpression. Briefly: Neuronal cell count fold change vs Ascl1-only control (log2 fold change); higher = more neurogenesis. Particulars: collection day: 2. The method, then:
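Primary P11 mouse Muller glia carrying dox-inducible Ascl1 were treated with Tocriscreen Stem Cell Library compounds at 0.1, 1 or 10 uM together with doxycycline for 5 days, then profiled by sci-Plex hashing and sci-RNA-seq2. Cells were annotated by marker genes and cell-type counts per well were size-factor adjusted. Read-outs are the log2 fold change of Neuronal (NeuPre + bipolar) and ProL cell counts versus the Ascl1-only control wells of the same collection day, plus the raw number of recovered cells per well. There is one well per dose, and wells with fewer than 20 cells were discarded.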

Take `N[C@@H]1C[C@H]1c1ccccc1` [Tranylcypromine hydrochloride]: the “Neuronal cell count fold change” value is, setting by setting: (0.1 µM) -0.893; (1 µM) -2.12; (10 µM) -1.38.

In the case of `Cc1sc2c(c1C)C(c1ccc(Cl)cc1)=N[C@@H](CC(N)=O)c1nnc(C)n1-2`, the “Neuronal cell count fold change” value by setting is: (0.1 µM) -3.7; (1 µM) -3.7; (10 µM) -3.7.

`COc1ccc(N(C(=O)Oc2c(C)cccc2C)c2ccnc(Nc3ccc(N4CCN(C)CC4)cc3)n2)c(OC)c1`: the “Neuronal cell count fold change” value (0.1 µM) came to 0.107 and the “Neuronal cell count fold change” value (1 µM) amounted to 0.943.

Source of the values: the supplement of paper PMC11637464.
